Assay results reported in paper PMC9515611.
These are yes or no findings as the source states them, for the method shown. In cells and extracts the contact can be indirect. A yes stands for co-enrichment or nearness to the bait. Other partners may have been found. Where a sequence is shown, tags or fusion partners need not be part of it.

Chains of the proteins cited; added tags and fusions are not shown. Residues count along the entry.
UniProt P11021, residues 19-654: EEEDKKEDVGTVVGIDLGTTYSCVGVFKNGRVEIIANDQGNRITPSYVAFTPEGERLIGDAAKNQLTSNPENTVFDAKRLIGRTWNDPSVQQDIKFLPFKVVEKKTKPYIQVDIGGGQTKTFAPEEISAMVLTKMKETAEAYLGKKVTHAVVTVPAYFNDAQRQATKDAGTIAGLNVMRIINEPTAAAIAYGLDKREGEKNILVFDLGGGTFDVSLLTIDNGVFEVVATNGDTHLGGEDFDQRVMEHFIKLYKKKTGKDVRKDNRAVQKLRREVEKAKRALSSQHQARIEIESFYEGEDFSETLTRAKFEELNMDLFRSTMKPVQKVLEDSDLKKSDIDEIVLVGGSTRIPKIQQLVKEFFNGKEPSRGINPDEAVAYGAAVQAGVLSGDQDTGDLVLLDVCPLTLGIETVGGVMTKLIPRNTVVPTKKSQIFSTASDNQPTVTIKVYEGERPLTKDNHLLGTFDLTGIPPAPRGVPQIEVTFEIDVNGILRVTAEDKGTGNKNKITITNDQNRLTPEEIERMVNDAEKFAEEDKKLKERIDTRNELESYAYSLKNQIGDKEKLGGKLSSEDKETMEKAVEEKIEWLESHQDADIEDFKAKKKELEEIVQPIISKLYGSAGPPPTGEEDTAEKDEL

Target: T1, DLC1-Flag (deleted in liver cancer-1), expressed in HEK-293T (human) (UniProt Q96QB1)
T1 sequence: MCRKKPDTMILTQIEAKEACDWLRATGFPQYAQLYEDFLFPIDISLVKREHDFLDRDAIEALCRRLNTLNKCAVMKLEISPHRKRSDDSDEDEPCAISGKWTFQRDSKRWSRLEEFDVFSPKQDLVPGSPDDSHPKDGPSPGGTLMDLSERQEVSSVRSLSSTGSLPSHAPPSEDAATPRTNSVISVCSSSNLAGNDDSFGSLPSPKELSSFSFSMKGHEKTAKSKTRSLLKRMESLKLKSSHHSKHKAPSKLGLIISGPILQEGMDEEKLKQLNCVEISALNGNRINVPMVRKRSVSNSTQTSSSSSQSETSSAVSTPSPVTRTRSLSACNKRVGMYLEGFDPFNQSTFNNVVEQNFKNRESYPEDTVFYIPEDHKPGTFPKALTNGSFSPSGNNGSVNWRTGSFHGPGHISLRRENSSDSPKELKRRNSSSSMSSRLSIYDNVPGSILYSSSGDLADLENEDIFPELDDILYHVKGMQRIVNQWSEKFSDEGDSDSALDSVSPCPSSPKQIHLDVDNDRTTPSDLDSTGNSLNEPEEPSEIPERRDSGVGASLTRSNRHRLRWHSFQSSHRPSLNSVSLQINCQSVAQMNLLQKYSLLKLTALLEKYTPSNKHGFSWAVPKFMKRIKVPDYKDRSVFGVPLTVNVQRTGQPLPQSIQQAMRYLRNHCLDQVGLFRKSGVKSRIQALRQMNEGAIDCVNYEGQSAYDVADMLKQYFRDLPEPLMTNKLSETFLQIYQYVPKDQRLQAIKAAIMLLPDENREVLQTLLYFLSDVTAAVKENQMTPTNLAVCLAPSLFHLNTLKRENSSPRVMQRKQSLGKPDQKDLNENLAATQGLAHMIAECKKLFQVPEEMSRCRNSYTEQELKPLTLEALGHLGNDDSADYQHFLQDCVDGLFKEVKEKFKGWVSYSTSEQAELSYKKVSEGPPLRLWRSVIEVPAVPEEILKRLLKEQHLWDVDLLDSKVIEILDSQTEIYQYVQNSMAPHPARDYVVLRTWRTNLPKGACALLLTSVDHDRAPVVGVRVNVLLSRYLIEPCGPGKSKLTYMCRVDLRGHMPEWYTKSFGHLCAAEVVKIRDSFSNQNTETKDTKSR
Assay: affinity purification with mass spectrometry; cytoplasmic extracts of HEK-293T stably expressing DLC1-Flag, IP with anti-Flag M2 magnetic beads; specific band identified by MS

binding: binds
Substance: glucose-regulated protein 78 kDa (GRP78), endogenous in HEK-293T (from UniProt P11021 19-654)
